Reference: paper PMC9410881

Test system: Aca10 WT (Pseudomonas citronellolis)
Assay: EMSA
Details: 2.5 uM Aca10; EMSA: 20 ng dsDNA in 20 mM Tris-HCl pH 8.0, 150 mM NaCl, 60 min on ice; 10% native 0.5x TBE PAGE, SYBR Gold; recombinant protein; protein details: C-terminal His6 (pET21a)

Question: Does “ACAAGCGGCACACTGTGCCTATTGCGAATTAGGCACAATGTGCCTAATCTAACG (double strand) [Aca1 IR]” bind?
Answer: no binding

Question: Does “ATACGCTCATTGAGCGTAT (double strand) [IR2 truncated by one base at both ends (19 bp)]” bind?
Answer: binds

Question: Does “CACTGTTCGCAATTGCGAACTAAGATGGAACCAGATTCGAGATTGGCTCGAATCACCTC (double strand) [Aca2 IR]” bind?
Answer: no binding

The exact form of at least one protein or probe is not confirmed. A negative result means that nothing was seen under these conditions.
